{
  "sequences": {"note": "Chains of the proteins cited; added tags and fusions are not shown. Residues count along the entry.", "UniProt L0EQS9, 1-486": "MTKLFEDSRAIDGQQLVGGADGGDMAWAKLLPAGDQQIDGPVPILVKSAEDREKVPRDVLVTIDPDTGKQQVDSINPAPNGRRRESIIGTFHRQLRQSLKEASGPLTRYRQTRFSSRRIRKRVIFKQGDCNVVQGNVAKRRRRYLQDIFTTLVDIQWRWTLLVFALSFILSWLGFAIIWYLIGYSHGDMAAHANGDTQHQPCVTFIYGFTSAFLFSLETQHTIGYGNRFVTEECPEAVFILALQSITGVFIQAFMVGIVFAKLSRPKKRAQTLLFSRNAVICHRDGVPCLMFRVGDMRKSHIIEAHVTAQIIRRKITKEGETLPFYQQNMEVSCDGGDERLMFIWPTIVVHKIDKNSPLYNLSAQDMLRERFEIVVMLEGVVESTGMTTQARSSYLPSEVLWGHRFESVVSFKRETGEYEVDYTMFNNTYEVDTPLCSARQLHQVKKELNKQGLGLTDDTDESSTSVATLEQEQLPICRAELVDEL"},
  "source": "paper PMC4222822",
  "about": "“Discovery and Characterization of a Potent and Selective Inhibitor of Aedes aegypti Inward Rectifier Potassium Channels” (PLoS ONE, 2014)",
  "target": "AeKir1 (Aedes aegypti, UniProt L0EQS9)",
  "experiment": "Tl+ flux assay in T-REx-HEK293-AeKir1 cells",
  "assay_type": "cell-based",
  "conditions": "Table S3, left-hand sulfonamide SAR; 11-point CRCs on AeKir1 in Tl+ flux, triplicate on two separate days",
  "procedure": "Tl^+ flux assays were performed essentially as described previously, [18], [19]. Briefly, stably transfected T-Rex-HEK-293 cells expressing AeKir1 channels were cultured overnight in 384-well plates (20,000 cells/20 µL/well black-walled, clear-bottomed BD PureCoat amine-coated plates (BD, Bedford, MA) with a plating media containing DMEM, 10% dialyzed FBS and 1 µg/mL tetracycline. The next day, the cell culture medium was replaced with a dye-loading solution containing assay buffer (Hanks Balanced Salt Solution with 20 mM HEPES, pH 7.3), 0.01% (w/v) Pluronic F-127 (Life Technologies, Carlsbad, CA), and 1.2 µM of the thallium-sensitive dye Thallos-AM (TEFlabs, Austin, TX). Following 1 hr incubation at room temperature, the dye-loading solution was washed from the plates and replaced with 20 µL/well of assay buffer. […] Tl^+ flux data were analyzed as previously described, [21], [22] using a combination of Excel (Microsoft Corp, Redmond, WA) with XLfit add-in (IDBS, Guildford, Surrey, UK) and OriginPro (OriginLab, Northampton, MA) software. […] The slope of the fluorescence increase beginning 5 s after Tl^+ addition and ending 15 s after Tl^+ addition was calculated. […] Half-inhibition concentration (IC50) values were calculated from fits using a four parameter logistic equation.",
  "note": "pIC50: −log10 of the molar value. The match of structure and compound is tentative.",
  "data": [
    {"smiles": "CCC(=O)N1c2ccc(S(=O)(=O)Nc3cccc(OC)c3)cc2CC1C", "note": "(stereo not shown) [VU625, N-(3-methoxyphenyl)-2-methyl-1-propionylindoline-5-sulfonamide]", "values": [
      {"measurement": "pIC50", "result": 6.47}
    ]}
  ]
}
